Measurements reported in publication PMC4357451.

By UniProt entry, the sequences of proteins in these tests, tags left out.
UniProt F1LTE0: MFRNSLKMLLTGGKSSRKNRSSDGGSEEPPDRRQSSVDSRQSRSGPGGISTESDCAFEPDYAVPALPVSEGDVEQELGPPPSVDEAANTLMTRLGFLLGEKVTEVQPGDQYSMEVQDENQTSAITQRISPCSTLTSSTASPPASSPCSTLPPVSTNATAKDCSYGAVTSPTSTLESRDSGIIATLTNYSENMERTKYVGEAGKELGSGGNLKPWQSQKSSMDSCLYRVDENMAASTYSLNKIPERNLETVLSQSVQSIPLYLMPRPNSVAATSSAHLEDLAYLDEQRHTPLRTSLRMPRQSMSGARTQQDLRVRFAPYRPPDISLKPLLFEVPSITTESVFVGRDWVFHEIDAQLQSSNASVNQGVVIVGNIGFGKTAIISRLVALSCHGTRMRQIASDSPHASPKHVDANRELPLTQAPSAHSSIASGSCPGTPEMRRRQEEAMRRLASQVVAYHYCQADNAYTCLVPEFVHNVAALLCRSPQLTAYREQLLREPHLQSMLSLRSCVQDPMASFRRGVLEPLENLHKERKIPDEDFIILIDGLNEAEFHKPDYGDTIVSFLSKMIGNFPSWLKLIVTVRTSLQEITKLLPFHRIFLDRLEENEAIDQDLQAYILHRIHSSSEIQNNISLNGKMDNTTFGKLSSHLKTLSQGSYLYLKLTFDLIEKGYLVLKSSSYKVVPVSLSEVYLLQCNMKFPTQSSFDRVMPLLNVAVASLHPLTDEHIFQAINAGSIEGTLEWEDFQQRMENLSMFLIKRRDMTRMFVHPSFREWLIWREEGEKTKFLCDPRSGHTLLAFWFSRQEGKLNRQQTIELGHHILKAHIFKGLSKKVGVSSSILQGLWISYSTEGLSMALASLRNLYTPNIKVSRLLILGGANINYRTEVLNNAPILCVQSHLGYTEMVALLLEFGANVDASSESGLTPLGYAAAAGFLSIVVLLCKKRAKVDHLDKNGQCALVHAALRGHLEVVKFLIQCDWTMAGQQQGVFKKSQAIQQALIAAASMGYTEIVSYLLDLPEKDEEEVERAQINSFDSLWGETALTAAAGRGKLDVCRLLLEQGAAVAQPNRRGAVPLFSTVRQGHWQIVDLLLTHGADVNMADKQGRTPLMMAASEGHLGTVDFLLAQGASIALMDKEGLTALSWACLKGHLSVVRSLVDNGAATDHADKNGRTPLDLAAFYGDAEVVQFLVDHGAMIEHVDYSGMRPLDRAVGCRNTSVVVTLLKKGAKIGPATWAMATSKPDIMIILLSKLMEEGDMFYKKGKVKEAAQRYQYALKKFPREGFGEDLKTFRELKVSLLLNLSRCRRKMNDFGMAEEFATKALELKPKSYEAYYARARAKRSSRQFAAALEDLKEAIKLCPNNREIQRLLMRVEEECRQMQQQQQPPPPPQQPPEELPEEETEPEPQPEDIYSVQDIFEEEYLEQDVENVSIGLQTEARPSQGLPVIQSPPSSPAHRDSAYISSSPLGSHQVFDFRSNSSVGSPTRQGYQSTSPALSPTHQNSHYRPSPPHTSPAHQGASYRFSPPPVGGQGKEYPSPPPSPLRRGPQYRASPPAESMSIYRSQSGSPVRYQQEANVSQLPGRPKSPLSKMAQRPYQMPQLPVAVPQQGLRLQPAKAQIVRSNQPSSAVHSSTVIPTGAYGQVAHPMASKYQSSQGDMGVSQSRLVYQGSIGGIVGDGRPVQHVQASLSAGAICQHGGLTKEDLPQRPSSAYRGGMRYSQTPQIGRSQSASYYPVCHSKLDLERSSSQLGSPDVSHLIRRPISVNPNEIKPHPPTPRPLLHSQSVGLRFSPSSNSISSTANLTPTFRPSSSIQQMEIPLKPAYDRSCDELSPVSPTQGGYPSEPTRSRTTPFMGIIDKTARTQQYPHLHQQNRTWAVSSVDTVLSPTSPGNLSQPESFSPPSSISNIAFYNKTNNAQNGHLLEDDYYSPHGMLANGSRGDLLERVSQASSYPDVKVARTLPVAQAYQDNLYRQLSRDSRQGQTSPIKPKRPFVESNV

T1: GFP-PRICKLE1 (human) (UniProt Q96MT3)
T1 sequence: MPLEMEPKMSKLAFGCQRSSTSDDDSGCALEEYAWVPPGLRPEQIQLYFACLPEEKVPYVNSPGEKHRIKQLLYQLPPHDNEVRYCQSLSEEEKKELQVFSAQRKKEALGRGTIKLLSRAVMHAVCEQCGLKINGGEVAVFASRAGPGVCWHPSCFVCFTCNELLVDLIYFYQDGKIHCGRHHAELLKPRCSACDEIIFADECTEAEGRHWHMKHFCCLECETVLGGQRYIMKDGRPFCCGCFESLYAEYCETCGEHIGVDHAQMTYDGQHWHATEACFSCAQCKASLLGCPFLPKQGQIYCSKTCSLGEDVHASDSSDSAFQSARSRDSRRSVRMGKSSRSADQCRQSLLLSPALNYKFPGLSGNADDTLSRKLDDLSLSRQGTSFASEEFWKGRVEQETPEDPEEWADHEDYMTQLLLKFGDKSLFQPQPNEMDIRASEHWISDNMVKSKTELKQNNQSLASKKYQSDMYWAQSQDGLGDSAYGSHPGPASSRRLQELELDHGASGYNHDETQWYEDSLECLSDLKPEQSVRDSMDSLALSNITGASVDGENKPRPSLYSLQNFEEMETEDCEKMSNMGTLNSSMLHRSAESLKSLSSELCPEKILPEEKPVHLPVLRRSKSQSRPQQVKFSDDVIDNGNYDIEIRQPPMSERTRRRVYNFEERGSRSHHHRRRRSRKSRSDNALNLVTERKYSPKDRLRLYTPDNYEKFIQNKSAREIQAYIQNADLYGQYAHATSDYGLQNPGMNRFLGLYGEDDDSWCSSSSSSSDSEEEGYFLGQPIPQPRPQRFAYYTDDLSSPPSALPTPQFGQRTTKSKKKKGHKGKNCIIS

T2: GFP-PRICKLE2 (human) (UniProt Q7Z3G6)
T2 sequence: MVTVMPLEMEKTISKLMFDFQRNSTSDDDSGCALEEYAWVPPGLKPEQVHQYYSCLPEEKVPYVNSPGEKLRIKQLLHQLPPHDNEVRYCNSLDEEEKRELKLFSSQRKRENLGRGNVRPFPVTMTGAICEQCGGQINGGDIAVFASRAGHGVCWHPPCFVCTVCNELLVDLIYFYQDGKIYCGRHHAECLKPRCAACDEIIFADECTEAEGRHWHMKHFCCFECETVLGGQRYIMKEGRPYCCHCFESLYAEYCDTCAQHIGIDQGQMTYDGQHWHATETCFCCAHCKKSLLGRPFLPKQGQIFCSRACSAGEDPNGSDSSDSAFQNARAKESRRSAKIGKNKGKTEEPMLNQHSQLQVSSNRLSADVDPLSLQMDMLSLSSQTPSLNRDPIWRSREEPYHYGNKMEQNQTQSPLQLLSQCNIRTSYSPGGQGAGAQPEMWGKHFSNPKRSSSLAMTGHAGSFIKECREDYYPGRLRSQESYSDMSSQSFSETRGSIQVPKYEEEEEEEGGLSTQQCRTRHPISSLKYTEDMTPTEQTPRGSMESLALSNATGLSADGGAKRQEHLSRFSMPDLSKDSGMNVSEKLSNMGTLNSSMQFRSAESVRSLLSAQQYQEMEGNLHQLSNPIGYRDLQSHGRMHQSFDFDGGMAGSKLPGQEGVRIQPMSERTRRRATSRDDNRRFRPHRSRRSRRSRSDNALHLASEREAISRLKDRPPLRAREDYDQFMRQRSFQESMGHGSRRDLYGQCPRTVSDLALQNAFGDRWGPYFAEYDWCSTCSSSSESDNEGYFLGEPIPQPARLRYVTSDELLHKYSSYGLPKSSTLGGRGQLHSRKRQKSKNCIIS


Tests used:
GFP-PRICKLE1 (human) = target: T1, GFP-PRICKLE1 (human); assay: affinity purification with mass spectrometry; anti-GFP beads on whole-cell lysates of doxycycline-induced, NGF-differentiated PC12 lines expressing GFP, GFP-PRICKLE1 or GFP-PRICKLE2; NET-100 buffer; LC-MS/MS matched to rat sequences
GFP-PRICKLE2 (human) = target: T2, GFP-PRICKLE2 (human); assay: as above

binding (GFP-PRICKLE1 (human))	binding (GFP-PRICKLE2 (human))	Molecule
binds	binds	Tanc2, endogenous in PC12 cells (from UniProt F1LTE0 1-1992)
binds	binds	Bcr, endogenous in PC12 cells (protein, UniProt F1LXF1 1-1270) MVDSVGFAEAWRAQFPDSEPPRMELRSVGDIEQELERCKASIRRLEQEVNQERFRMIYLQTLLAKEKKSYDRQRWGFRRAAQPPDGAAEPRASAPRLPPAPADGADPAPVEESEARPDGEGSPSKGRPATARRPAAAAPADRDDRGPPTSVAALRSNFEKIRKGPAQPGSADAEKPFYVNVEFHHERGLVKVNDKEVSDRISSLGSQAMQMERKKSQQSAGQGLGEAPRPHYRGRSSESSCGLDGDYEDAELNPRFLKDNLINANGGNRPPWPPLEYQPYQSIYVGGMMVEGEGKSPLLRSQSTSEQEKRLTWPRRSYSPRSFEDSGGGYTPDCSSNENLTSSEEDFSSGQSSRVSPSPTTYRMFRDKSRSPSQNSQQSFDSSSPPTPQCQKRHRQCQVVVSEATIVGVRKTGQIWPSDGDSTFQGEADSSFGTPPGYGCAADQAEEQRRHQDGLPYIDDSPSSSPHLSSKGRGSPASGALEPTKASELDLEKGLEMRKWVLSGILASEETYLSHLEALLLPMKPLKAAATTSQPVLTSQQIETIFFKVPELYEIHKEFYDGLFPRVQQWSHQQRVGDLFQKLASQLGVYRAFVDNYGVAMETAEKCCQANAQFAEISENLRARSNKDVKDSTTKNSLETLLYKPVDRVTRSTLVLHDLLKHTPSSHPDHSLLQDALRISQNFLSSINEEITPRRQSMTVKKGEHRQLLKDSFMVELVEGARKLRHIFLFTDLLLCTKLKKQSGGKTQQYDCKWYIPLTDLSFQMVDELEALPNIPLVPDEELDALKIKISQIKSDIQREKRANKGSKVMERLRKKLSEQESLLLLMSPSMAFRVHSRNGKSYTFLISSDYERAEWRESIREQQKKCFKSFSLTSVELQMLTNSCVKLQTVHHIPLTINKEDDESPGLYGFLHAIVHSATGFKQSSNLYCTLEVDSFGYFVNKAKTRVYRDTTEPNWNEEFEIELEGSQTLRILCYEKCYNKMKMAKEDGESADKLMGKGQVQLDPQTLQDRDWQRTVIDMNGIEVKLSVKFTSREFSLKRMPSRKQTGVFGVKIAVVTKRERSKVPYIVRQCVEEIERRGMEEVGIYRVSGVATDIQALKAAFDVNNKDVSVMMSEMDVNAIAGTLKLYFRELPEPLFTDEFYPNFAEGIALSDPVAKESCMLNLLLSLPEANLLTFLFLLDHLKRVAEKETVNKMSLHNLATVFGPTLLRPSEKESKLPANPSQPITMTDSWSLEVMSQVQVLLYFLQLEAIPAPDSKRQSILFSTEV

No constants are given. Whether binding was seen depends on the method and setting. Binding seen in cells or lysates may run through a third protein. Here binding means that the protein was enriched with, or labelled near, the bait; the list need not be complete. Sequences can lack the tags named with a protein.
